Experimental data taken from PMC5228031, “CDK4/6-dependent activation of DUB3 regulates cancer metastasis through SNAIL1” (Nature Communications, 2017).

Amino acid sequences for entries named in this document (tags omitted).
UniProt O95863: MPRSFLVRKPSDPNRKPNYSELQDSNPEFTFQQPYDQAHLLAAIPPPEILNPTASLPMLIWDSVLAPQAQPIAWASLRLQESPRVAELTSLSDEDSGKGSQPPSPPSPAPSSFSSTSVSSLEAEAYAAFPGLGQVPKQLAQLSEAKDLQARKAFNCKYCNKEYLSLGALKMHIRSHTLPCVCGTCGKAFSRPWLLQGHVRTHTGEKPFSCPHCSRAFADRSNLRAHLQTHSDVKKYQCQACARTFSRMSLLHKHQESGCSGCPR
UniProt Q93009: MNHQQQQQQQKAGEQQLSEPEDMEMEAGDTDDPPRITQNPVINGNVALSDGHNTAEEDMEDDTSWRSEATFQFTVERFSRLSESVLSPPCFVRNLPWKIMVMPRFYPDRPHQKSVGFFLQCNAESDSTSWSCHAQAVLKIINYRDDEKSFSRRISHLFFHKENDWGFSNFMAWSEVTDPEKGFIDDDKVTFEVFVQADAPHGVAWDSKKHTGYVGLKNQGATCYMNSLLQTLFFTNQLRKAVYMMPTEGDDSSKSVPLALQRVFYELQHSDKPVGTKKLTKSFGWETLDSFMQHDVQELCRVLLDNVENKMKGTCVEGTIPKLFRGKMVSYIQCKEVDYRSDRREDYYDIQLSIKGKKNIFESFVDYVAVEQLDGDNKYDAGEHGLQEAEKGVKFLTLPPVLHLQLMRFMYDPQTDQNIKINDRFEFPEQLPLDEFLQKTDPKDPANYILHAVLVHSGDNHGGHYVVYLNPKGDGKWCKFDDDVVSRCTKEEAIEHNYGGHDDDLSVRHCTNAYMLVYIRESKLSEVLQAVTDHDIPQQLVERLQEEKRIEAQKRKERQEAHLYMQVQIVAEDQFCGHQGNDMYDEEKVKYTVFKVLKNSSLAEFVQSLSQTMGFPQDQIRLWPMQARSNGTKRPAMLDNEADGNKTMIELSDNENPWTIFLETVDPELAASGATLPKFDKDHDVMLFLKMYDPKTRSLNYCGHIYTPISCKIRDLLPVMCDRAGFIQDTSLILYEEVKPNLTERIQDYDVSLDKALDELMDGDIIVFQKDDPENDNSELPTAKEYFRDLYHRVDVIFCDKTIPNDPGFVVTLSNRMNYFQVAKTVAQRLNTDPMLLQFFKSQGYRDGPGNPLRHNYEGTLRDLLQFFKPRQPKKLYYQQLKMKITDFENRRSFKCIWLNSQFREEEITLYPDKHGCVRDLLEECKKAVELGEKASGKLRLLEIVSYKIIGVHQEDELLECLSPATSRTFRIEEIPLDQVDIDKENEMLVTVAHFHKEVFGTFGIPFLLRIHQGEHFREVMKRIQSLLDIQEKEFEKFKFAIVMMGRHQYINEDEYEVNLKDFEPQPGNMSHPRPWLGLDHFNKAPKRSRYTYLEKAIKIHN
UniProt P51784: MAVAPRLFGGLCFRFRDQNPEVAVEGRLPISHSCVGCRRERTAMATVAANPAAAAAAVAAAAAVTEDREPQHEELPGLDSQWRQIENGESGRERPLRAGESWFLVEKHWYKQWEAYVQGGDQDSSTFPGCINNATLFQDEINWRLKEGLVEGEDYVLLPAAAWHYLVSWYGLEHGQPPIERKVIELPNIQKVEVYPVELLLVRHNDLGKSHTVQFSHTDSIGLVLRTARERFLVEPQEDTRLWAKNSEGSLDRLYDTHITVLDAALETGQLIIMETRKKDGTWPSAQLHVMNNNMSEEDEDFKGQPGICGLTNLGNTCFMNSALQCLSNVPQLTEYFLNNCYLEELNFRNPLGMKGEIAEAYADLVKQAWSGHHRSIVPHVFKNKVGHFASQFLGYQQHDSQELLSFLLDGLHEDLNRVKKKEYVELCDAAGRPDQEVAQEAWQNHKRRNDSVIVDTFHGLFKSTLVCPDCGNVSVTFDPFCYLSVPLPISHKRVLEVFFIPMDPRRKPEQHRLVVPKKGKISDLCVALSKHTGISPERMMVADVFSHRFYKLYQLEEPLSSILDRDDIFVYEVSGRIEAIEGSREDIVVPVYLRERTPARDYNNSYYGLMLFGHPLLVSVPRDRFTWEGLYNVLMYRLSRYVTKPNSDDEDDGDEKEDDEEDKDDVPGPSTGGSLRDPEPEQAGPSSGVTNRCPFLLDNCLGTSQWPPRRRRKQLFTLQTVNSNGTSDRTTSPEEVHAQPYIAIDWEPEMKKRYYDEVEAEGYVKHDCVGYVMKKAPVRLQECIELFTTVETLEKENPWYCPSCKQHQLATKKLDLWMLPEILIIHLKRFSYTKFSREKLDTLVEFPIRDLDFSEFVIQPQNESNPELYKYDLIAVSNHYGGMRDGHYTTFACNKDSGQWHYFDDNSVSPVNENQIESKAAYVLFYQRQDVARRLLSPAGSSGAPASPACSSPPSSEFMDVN
UniProt P68400: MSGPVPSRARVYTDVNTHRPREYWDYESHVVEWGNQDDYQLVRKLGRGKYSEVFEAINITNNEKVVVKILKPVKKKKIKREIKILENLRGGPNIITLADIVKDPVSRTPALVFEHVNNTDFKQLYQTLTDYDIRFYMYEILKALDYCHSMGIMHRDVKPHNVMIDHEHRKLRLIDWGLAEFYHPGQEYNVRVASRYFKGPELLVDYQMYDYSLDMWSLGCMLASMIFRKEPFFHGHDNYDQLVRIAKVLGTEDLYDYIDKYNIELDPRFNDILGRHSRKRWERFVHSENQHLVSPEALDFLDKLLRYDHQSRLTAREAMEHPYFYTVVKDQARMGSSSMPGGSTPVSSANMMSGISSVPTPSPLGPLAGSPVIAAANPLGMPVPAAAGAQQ

Biological target: FLAG-SNAIL1 (UniProt O95863)
Assay: affinity purification with mass spectrometry; tandem affinity purification of SNAIL1 complexes from MDA-MB-231 cells stably expressing FLAG-SNAIL1, then mass spectrometric analysis

binding: binds
Molecule: USP7 (from UniProt Q93009 1-1102) (enzyme)

binding: binds
B1: deubiquitinating enzyme 3 (DUB3), endogenous (enzyme, UniProt Q6R6M4 1-530)
chain: MEDDSLYLGGEWQFNHFSKLTSSRPDAAFAEIQRTSLPEKSPLSSEARVDLCDDLAPVARQLAPRKKLPLSSRRPAAVGAGLQNMGNTCYENASLQCLTYTPPLANYMLSREHSQTCQRPKCCMLCTMQAHITWALHSPGHVIQPSQALAAGFHRGKQEDAHEFLMFTVDAMKKACLPGHKQVDHHSKDTTLIHQIFGGCWRSQIKCLHCHGISDTFDPYLDIALDIQAAQSVKQALEQLVKPEELNGENAYHCGLCLQRAPASKTLTLHTSAKVLILVLKRFSDVTGNKLAKNVQYPECLDMQPYMSQQNTGPLVYVLYAVLVHAGWSCHDGHYFSYVKAQEGQWYKMDDAKVTACSITSVLSQQAYVLFYIQKSEWERHSESVSRGREPRALGAEDTDRRATQGELKRDHPCLQAPELDERLVERATQESTLDHWKFPQEQNKTKPEFNVRKVEGTLPPNVLVIHQSKYKCGMKNHHPEQQSSLLNLSSTTRTDQESVNTGTLASLQGRTRRSKGKNKHSKRALLVCQ

The next lines start with the molecule.

Molecule: USP11 (from UniProt P51784 1-963) (enzyme)
binding: binds

Molecule: CSNK2A1 (from UniProt P68400 1-391) (enzyme)
binding: binds

These are yes or no findings as the source states them, for the method shown. In cells and extracts the contact can be indirect. Here binding means that the protein was enriched with, or labelled near, the bait; the list need not be complete. One block for each molecule: values may come before it.
